In all, about 350,000 compounds went through this assay and about 6,000 (1.7%) were called active. Inconclusive results, whose numbers are uncertain, are shown with a selection of clear calls. Cut-off read from the data, not from the text of the source: active = CPE inhibition above about 20% (passing the limit was not always enough); inconclusive = no clear call, values can overlap the other calls; tested in BHK-21 cells.
Assay: protection of cells from dengue 2 killing – plate reader, single concentration, primary screen (AID 651640);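 note: 0% = median of neutral control wells and 100% = median of positive control wells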
Conditions: DENV2-infected cells, cytopathic effect rescue, at 9.99 µM, stronger effect = higher value

Row | Structure (SMILES) | CPE inhibition
1 | COCC(=O)Nc1ccc2c(c1)C(=O)N(C)C[C@@H](OC)[C@H](C)CN(C(=O)NC(C)C)[C@@H](C)CO2 | inactive: -2.12%
2 | CC(C)CC#Cc1cnc2c(c1)C(=O)N([C@H](C)CO)C[C@@H](C)[C@@H](CN(C)C(=O)c1ccc(F)cc1)O2 | active: 21.1%
3 | C[C@@H]1CN([C@H](C)CO)C(=O)Cc2cc(NS(=O)(=O)c3cn(C)cn3)ccc2O[C@@H]1CN(C)S(=O)(=O)c1ccccc1 | inactive: -1.27%
4 | COc1ccc(-n2c(Cc3cccn3C)nnc2SCC(=O)NCC2CCCO2)cc1 (stereo not given) | inconclusive: 25.9%
5 | O=C(C[C@@H]1CC[C@@H](NC(=O)NC2CCCC2)[C@H](CO)O1)NCc1ccc(F)cc1 | inactive: -3.6%
6 | CCCNC(=O)C[C@H]1CC[C@@H]2[C@H](COC[C@H](O)CN2C(=O)C2CCOCC2)O1 | inactive: 4.95%
7 | C[C@@H]1CN([C@H](C)CO)C(=O)Cc2cc(NC(=O)Nc3ccc4c(c3)OCO4)ccc2O[C@H]1CN(C)CC1CCCCC1 | inactive: -4.55%
8 | COC(=O)c1sc(C(C)(C)C)cc1CS(=O)(=O)c1ccccn1 | inconclusive: 44%
9 | CCCNC(=O)C[C@H]1C[C@@H]2c3cc(NC(=O)c4cccnc4)ccc3O[C@@H]2[C@@H](CO)O1 | inactive: -0.125%
10 | O=C(NCc1ccc(F)cc1)c1cccnc1C(=O)O | inconclusive: 31.3%
11 | COC(=O)c1ccc2nc(-c3cccc(Br)c3)c(Cc3ccc(OC)cc3C)n2c1 | inconclusive: 38.7%
12 | CCCNC(=O)C1(C)CCCN(Cc2ccccc2N(C)C)C1 (stereo not given) | inconclusive: 33.5%
13 | COc1ccc(CNCCS(=O)(=O)NCc2ccccc2)cc1 | inconclusive: 54.8%
14 | C/C=C/c1ccc([C@H]2[C@@H](CO)N(CCC(F)(F)F)C23CN(C(=O)CC2CC2)C3)cc1 | active: 65.1%
15 | CC(C)Oc1ccc(C(=O)NC2CCN(Cc3ccccc3)CC2)cc1 | inactive: 4.78%
16 | COc1ccc(NC(=O)N(C)C[C@H]2OCCCC[C@H](C)Oc3ccc(N(C)C)cc3C(=O)N([C@H](C)CO)C[C@@H]2C)cc1 | inconclusive: 72.8%
17 | Cc1noc(C)c1S(=O)(=O)N1[C@@H]2CNC[C@H]1C2c1ccc(-c2ccccc2)cc1 (stereo not given in full) | inconclusive: 29.2%
18 | COc1cc(C(F)(F)F)nc(-c2ccccn2)n1 | inconclusive: 24.2%
19 | COc1ccccc1C(=O)NCCC(=O)NN1C(=O)NC2(CCCCC2)C1=O | inactive: 0.164%
20 | CCCC#Cc1cnc2c(c1)C(=O)N([C@@H](C)CO)C[C@H](C)[C@H](CN(C)C(=O)Cc1cccnc1)O2 | inconclusive: 27.8%

Two of the compounds above, field by field.
C/C=C/c1ccc([C@H]2[C@@H](CO)N(CCC(F)(F)F)C23CN(C(=O)CC2CC2)C3)cc1
  CPE inhibition: active: 65.1%
CC(C)Oc1ccc(C(=O)NC2CCN(Cc3ccccc3)CC2)cc1
  CPE inhibition: inactive: 4.78%

From PubChem BioAssay AID651640 (Broad Institute, 2012)
